Laboratory results published in paper PMC11870507.
Results are given in words; binding and its absence hold for the method and conditions named. Binding calls can cover weak binding; strength is not graded here. For some of these results: In cells and extracts the contact can be indirect.

Sequences of proteins named here, by UniProt entry; tags and fusion partners are left off. A change or cut given only in a name is not applied to a line headed by its entry.
UniProt K4DBH0: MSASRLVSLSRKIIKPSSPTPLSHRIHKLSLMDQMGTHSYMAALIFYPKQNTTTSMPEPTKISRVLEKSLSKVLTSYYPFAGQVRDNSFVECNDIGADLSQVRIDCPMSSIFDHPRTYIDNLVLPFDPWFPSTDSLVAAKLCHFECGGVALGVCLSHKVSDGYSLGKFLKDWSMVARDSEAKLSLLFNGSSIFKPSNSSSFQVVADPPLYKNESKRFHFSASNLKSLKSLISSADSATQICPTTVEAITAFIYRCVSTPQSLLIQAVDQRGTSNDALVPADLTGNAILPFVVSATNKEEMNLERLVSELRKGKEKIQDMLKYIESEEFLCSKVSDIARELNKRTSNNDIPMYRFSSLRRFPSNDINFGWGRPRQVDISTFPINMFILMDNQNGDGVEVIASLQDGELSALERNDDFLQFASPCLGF
UniProt K4D9Y4: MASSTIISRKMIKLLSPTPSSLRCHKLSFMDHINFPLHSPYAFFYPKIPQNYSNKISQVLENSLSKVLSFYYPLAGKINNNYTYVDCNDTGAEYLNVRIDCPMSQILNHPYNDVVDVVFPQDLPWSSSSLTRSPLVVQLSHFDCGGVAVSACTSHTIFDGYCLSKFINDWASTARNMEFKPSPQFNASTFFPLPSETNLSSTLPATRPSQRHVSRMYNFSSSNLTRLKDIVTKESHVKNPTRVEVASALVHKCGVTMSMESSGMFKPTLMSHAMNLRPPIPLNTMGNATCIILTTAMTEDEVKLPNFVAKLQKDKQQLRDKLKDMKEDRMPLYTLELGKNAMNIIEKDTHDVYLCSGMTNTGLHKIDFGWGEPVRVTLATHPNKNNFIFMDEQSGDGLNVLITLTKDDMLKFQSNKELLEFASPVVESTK
UniProt A0A3Q7EQZ9: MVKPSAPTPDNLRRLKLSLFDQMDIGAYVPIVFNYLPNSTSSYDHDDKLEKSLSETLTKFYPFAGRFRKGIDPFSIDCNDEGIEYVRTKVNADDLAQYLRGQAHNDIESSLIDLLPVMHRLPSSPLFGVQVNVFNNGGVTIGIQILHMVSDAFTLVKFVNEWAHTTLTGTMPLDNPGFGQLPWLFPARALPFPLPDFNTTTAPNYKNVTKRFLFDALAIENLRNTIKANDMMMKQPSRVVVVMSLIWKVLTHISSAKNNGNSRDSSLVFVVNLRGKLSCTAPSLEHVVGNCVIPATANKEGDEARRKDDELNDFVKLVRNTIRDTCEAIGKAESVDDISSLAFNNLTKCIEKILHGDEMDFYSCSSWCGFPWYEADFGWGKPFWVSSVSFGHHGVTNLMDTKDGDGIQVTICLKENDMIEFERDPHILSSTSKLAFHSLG
UniProt A0A0U3JNE4: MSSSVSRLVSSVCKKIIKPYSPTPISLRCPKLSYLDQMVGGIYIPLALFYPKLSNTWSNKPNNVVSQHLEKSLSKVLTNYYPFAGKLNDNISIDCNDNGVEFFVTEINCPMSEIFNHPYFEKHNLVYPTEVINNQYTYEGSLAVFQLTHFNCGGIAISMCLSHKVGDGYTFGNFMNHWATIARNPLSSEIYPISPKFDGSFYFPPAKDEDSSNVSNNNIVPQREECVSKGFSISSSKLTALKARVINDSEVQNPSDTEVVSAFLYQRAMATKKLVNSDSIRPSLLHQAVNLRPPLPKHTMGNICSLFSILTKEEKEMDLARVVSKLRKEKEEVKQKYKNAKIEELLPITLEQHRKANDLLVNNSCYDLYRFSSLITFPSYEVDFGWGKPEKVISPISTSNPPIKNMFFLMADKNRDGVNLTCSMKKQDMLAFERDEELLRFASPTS

What was measured:
[1] = target: nLUC-SlASAT1 (Solanum lycopersicum (tomato)) (UniProt K4DBH0); experiment: split reporter; split-luciferase assay quantified (relative luciferase units) with protein extracted from infiltrated N. benthamiana leaves
[2] = target: nLUC-SlASAT3 (Solanum lycopersicum (tomato)) (UniProt K4D9Y4); experiment: as above
[3] = target: nLUC-SlASAT1 (Solanum lycopersicum (tomato)) (UniProt K4DBH0); experiment: split reporter; split-luciferase complementation imaging of N. benthamiana leaves co-infiltrated with nLUC and cLUC constructs, 48-72 h after infiltration, 0.25 mM coelenterazine sprayed on, luminescence recorded with a Photek 216
[4] = target: nLUC-SlASAT3 (Solanum lycopersicum (tomato)) (UniProt K4D9Y4); experiment: as above
[5] = target: HA-tagged SlASAT1 (Solanum lycopersicum (tomato)) (UniProt K4DBH0); experiment: co-IP; pairs of HA- and Flag-tagged proteins co-expressed in N. benthamiana leaves; IP with magnetic beads and blot (Supplementary Fig. 10)
[6] = target: HA-tagged SlASAT1 (Solanum lycopersicum (tomato)) (UniProt K4DBH0); experiment: SEC; immunoprecipitated SlASAT1-4 complex from N. benthamiana eluted under non-denaturing conditions with HA peptide, Superdex 200 3.2/300, 50 mM Tris-HCl, 150 mM NaCl, pH 7.4; peak fractions blotted with HA and Flag antibodies

Measured: binding

SlASAT4-cLUC (from UniProt A0A3Q7EQZ9) (enzyme)
binds: [1] | [2] | [3] | [4]

Flag-tagged SlASAT4 (from UniProt A0A3Q7EQZ9) (enzyme)
binds: [5] | [6]

SlASAT2-cLUC (from UniProt A0A0U3JNE4) (enzyme)
binds: [1] | [2] | [3] | [4]
